Like-named read-outs stand apart in the source and are kept apart here. These are yes or no findings as the source states them, for the method shown. Binding seen in cells or lysates may run through a third protein. Some entries that bind do so weakly or less than the wild type. Tags and fused reporters may be left off the sequences shown.
Key:
WT ARL14–GFP (human) [1] = target: T1, WT ARL14–GFP (human) (UniProt Q8N4G2); assay: proximity ligation; Duolink PLA on fixed, permeabilised Flp-In HeLa cells expressing ARL14 WT–GFP (GFP alone as control), with overexpressed HA–PLD1 or endogenous SNX1 / SNX6; puncta per cell counted
T1 sequence: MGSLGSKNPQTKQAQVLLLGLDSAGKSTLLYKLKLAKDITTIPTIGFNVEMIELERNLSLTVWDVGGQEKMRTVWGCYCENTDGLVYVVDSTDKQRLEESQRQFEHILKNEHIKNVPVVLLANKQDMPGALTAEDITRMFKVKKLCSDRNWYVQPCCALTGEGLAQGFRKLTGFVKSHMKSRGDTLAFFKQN

Amino acid sequences for entries named in this document (tags omitted).
UniProt Q13596: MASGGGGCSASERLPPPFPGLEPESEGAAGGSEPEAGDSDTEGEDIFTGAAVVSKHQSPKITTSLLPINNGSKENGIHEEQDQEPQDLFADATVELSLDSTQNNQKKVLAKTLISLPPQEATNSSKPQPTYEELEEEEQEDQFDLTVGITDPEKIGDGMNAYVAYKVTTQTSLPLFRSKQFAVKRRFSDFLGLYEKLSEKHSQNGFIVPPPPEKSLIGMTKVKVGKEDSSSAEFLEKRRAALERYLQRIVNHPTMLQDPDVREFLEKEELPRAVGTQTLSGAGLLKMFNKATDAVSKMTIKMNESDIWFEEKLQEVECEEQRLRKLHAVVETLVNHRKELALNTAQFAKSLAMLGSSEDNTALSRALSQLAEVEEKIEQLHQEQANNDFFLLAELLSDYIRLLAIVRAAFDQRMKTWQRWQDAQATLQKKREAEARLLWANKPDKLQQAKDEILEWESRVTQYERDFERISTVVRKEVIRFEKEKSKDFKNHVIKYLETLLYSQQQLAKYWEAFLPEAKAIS

WT ARL14–GFP (human) [2] = target: T1, WT ARL14–GFP (human); assay: as above; remark: listed apart in the source

## SNX1 (from UniProt Q13596 1-522)
WT ARL14–GFP (human) [1]
  binding: binds

B1: HA–PLD1 (enzyme, UniProt Q13393 1-1074)
chain: MSLKNEPRVNTSALQKIAADMSNIIENLDTRELHFEGEEVDYDVSPSDPKIQEVYIPFSAIYNTQGFKEPNIQTYLSGCPIKAQVLEVERFTSTTRVPSINLYTIELTHGEFKWQVKRKFKHFQEFHRELLKYKAFIRIPIPTRRHTFRRQNVREEPREMPSLPRSSENMIREEQFLGRRKQLEDYLTKILKMPMYRNYHATTEFLDISQLSFIHDLGPKGIEGMIMKRSGGHRIPGLNCCGQGRACYRWSKRWLIVKDSFLLYMKPDSGAIAFVLLVDKEFKIKVGKKETETKYGIRIDNLSRTLILKCNSYRHARWWGGAIEEFIQKHGTNFLKDHRFGSYAAIQENALAKWYVNAKGYFEDVANAMEEANEEIFITDWWLSPEIFLKRPVVEGNRWRLDCILKRKAQQGVRIFIMLYKEVELALGINSEYTKRTLMRLHPNIKVMRHPDHVSSTVYLWAHHEKLVIIDQSVAFVGGIDLAYGRWDDNEHRLTDVGSVKRVTSGPSLGSLPPAAMESMESLRLKDKNEPVQNLPIQKSIDDVDSKLKGIGKPRKFSKFSLYKQLHRHHLHDADSISSIDSTSSYFNHYRSHHNLIHGLKPHFKLFHPSSESEQGLTRPHADTGSIRSLQTGVGELHGETRFWHGKDYCNFVFKDWVQLDKPFADFIDRYSTPRMPWHDIASAVHGKAARDVARHFIQRWNFTKIMKSKYRSLSYPFLLPKSQTTAHELRYQVPGSVHANVQLLRSAADWSAGIKYHEESIHAAYVHVIENSRHYIYIENQFFISCADDKVVFNKIGDAIAQRILKAHRENQKYRVYVVIPLLPGFEGDISTGGGNALQAIMHFNYRTMCRGENSILGQLKAELGNQWINYISFCGLRTHAELEGNLVTELIYVHSKLLIADDNTVIIGSANINDRSMLGKRDSEMAVIVQDTETVPSVMDGKEYQAGRFARGLRLQCFRVVLGYLDDPSEDIQDPVSDKFFKEVWVSTAARNATIYDKVFRCLPNDEVHNLIQLRDFINKPVLAKEDPIRAEEELKKIRGFLVQFPFYFLSEESLLPSVGTKEAIVPMEVWT
WT ARL14–GFP (human) [2]
  binding: binds
